These are yes or no findings as the source states them, for the method shown. Binding can be weak; no strength is given.
Columns and labels:
[1] = target: BbPex26 (Beauveria bassiana) (UniProt J4KR20); test: two-hybrid; Matchmaker GAL4 Two-Hybrid System 3; baits BbPex6 and BbPex26 in pGBKT7, preys BbPex1 and BbPex6 in pGADT7; yeast strain YH109; positive when transformants grew on SD/Trp-Leu-His-Ade plates
[2] = target: BbPex6 (Beauveria bassiana) (UniProt J5JLL8); test: as above

Substance	binding [1]	binding [2]
BbPex6 (from UniProt J5JLL8)	binds	
BbPex1 (from UniProt J4KR43)	binds	binds

Reference: publication PMC9224678
